The other results are listed elsewhere or left out.
compound: CS(=O)(=O)CCNCc1ccc(-c2ccc3ncnc(Nc4ccc(OCc5cccc(F)c5)c(Cl)c4)c3c2)o1 [lapatinib]; test: log2 fold change, soluble protein after heating vs DMSO (PISA); higher = thermal stabilisation; K562 lysate, 10 uM; active = over 0.2 and 3.5 SD of the protein, either way, in both replicates (recomputed)
How it was run: (§1)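 K562 pellets were dounce-homogenised in PBS pH 7.4 containing 1 mM MgCl2, and the crude extract, at 1 mg/mL protein, was exposed to 10 μM compound for 30 min. Aliquots were heated for 3 min across 48°C-58°C, pooled, brought to 0.5% NP-40 at 4°C and spun at 21,000xg for 90 min, with the supernatant taken as soluble protein. TMTpro 16plex LC-MS/MS with equalised channel sums quantified that protein. Values are log-two fold changes in thermal stability relative to solvent controls, taken from duplicates.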

The chains behind the UniProt entries cited, without tags or fusion partners. Where a name states a change or a piece, a line headed by the entry shows the natural chain unless it says otherwise.
UniProt Q9Y6N5: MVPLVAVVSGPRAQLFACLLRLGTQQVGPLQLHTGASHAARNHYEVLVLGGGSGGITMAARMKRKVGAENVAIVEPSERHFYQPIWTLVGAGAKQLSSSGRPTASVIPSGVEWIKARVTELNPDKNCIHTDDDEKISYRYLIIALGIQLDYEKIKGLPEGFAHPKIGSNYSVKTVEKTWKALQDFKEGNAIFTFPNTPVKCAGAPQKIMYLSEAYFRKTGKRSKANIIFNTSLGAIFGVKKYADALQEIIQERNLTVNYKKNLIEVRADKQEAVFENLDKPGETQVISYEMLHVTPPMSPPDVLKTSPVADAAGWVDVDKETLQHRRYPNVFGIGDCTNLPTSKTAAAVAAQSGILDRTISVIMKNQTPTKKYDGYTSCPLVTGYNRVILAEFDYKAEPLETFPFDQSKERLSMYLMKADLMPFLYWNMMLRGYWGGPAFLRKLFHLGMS
UniProt Q9C0H9: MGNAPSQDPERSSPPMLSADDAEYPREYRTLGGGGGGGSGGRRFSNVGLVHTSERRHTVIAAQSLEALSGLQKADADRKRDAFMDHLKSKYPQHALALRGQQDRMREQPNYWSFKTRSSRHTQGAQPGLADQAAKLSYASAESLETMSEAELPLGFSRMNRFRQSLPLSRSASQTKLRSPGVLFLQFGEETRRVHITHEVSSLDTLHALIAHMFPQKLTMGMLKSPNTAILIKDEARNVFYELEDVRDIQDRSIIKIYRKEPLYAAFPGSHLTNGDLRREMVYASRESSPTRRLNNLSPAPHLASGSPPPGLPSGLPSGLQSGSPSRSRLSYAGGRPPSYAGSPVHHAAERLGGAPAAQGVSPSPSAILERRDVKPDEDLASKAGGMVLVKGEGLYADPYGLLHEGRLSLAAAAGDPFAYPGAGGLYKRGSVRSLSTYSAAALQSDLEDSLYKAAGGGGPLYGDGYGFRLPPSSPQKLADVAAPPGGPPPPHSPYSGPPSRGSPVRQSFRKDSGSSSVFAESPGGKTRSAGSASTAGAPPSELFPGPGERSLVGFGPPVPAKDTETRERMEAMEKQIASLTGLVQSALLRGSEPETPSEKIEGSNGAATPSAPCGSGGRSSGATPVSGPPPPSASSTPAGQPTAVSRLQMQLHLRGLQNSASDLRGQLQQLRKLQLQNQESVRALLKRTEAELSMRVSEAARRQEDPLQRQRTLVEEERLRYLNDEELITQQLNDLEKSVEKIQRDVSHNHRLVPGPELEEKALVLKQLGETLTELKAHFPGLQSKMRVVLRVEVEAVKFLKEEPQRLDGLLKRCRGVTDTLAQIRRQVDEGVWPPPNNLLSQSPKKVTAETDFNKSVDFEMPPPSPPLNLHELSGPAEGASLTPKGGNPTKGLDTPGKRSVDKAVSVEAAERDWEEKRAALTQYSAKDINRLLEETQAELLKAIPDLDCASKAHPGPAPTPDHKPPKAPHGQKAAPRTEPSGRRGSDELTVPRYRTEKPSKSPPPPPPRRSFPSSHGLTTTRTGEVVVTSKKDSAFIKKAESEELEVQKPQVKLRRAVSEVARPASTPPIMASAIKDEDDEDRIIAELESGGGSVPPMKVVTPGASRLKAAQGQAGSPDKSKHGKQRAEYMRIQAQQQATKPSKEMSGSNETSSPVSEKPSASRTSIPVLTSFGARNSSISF
UniProt Q5T280: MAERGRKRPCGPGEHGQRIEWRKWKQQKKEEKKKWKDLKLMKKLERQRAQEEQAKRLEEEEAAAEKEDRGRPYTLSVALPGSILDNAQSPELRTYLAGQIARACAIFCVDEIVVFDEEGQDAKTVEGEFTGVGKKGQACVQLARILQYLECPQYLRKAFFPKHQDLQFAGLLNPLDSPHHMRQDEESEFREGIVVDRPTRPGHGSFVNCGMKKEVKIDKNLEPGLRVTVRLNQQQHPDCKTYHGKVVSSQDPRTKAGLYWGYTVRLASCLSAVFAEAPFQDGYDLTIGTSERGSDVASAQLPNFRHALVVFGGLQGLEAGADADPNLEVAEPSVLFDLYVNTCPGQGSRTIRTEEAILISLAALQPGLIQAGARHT
UniProt P36956: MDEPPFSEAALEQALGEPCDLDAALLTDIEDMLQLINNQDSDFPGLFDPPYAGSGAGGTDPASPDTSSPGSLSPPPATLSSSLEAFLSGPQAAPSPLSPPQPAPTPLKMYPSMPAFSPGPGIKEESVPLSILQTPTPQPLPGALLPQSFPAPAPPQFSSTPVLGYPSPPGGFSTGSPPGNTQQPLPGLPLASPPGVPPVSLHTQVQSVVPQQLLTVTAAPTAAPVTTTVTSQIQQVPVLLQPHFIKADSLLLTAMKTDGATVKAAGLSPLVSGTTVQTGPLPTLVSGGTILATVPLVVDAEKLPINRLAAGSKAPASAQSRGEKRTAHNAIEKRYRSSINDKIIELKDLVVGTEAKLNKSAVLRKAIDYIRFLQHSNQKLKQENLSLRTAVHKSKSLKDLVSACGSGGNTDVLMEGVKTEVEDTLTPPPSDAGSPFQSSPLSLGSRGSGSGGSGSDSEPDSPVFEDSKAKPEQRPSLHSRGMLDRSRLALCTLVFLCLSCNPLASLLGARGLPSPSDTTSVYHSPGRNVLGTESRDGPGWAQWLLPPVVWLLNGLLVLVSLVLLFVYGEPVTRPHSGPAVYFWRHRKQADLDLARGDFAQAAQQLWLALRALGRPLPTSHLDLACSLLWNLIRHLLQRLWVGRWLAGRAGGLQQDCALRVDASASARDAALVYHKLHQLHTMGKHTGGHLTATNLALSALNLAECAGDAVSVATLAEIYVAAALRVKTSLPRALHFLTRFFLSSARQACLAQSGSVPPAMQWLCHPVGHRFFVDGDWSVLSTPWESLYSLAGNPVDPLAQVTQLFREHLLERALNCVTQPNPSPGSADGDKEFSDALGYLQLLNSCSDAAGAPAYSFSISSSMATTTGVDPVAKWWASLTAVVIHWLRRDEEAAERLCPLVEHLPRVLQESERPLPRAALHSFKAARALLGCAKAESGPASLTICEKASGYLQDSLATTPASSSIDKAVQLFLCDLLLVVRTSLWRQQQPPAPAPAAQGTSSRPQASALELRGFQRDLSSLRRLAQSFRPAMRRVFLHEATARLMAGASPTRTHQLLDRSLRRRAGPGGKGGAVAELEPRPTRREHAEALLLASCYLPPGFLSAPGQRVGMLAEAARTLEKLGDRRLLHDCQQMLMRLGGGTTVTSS
UniProt Q11206: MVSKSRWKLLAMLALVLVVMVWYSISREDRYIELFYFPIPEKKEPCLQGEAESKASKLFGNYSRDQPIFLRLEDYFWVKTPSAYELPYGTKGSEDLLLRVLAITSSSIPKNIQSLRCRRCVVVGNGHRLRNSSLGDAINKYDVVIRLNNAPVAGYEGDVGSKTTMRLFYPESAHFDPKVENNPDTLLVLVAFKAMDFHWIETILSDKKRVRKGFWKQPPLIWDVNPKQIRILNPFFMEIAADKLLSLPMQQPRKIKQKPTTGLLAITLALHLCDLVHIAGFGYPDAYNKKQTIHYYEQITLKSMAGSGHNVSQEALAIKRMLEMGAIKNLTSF
UniProt Q7Z698: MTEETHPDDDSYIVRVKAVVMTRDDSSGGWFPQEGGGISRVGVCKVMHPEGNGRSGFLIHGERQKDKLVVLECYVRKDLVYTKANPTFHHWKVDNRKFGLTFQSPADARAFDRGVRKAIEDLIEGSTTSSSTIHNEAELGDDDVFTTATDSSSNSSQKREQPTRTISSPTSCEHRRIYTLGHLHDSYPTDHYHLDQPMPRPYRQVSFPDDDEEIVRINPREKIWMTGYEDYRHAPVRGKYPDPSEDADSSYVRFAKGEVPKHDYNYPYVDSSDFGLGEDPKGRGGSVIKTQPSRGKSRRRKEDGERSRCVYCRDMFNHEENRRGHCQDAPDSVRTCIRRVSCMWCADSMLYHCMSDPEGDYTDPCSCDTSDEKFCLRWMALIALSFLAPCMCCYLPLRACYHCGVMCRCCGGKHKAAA
UniProt O95793: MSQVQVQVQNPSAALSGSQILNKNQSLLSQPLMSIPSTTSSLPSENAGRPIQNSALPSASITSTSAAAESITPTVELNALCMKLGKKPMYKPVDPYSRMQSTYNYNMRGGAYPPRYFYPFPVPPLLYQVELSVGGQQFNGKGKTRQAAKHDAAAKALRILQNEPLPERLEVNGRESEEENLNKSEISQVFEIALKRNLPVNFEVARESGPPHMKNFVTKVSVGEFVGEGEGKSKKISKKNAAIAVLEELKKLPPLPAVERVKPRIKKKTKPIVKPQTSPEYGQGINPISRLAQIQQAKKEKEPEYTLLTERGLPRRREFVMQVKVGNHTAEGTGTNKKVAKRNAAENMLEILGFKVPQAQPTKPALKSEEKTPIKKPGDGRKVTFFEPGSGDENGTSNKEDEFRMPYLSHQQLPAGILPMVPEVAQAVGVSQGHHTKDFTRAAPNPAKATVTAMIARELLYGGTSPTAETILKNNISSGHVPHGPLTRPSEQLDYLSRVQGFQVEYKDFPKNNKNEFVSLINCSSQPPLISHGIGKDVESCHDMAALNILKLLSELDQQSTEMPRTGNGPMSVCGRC
UniProt O75177, whole entry, looked up: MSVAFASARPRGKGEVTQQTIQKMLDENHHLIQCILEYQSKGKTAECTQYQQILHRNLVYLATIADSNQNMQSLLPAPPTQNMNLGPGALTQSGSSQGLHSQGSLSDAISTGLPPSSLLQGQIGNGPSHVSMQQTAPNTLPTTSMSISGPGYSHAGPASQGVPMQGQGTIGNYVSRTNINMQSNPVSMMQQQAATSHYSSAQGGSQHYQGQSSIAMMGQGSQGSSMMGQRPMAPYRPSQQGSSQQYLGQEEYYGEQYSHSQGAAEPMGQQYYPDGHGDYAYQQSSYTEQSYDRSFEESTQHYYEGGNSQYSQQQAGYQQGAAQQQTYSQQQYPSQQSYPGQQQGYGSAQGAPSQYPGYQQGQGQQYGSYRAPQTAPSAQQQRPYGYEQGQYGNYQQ
UniProt Q68D10: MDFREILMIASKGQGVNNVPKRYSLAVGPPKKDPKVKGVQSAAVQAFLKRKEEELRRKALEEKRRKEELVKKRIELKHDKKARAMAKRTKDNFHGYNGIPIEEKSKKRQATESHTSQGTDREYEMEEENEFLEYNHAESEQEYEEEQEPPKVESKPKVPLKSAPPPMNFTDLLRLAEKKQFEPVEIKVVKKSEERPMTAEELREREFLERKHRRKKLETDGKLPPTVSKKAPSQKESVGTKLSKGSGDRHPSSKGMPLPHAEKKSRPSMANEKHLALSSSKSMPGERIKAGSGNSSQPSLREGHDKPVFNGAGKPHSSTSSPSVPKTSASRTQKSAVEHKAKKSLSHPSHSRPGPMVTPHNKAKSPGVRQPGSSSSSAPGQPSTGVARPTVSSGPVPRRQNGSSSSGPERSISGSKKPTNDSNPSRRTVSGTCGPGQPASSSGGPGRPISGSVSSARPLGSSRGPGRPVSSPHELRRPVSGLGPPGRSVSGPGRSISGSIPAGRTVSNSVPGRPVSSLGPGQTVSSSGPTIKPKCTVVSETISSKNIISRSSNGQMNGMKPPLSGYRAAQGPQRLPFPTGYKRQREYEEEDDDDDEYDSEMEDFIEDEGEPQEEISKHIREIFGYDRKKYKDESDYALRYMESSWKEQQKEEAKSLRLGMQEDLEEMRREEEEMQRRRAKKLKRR
UniProt Q8NCJ5: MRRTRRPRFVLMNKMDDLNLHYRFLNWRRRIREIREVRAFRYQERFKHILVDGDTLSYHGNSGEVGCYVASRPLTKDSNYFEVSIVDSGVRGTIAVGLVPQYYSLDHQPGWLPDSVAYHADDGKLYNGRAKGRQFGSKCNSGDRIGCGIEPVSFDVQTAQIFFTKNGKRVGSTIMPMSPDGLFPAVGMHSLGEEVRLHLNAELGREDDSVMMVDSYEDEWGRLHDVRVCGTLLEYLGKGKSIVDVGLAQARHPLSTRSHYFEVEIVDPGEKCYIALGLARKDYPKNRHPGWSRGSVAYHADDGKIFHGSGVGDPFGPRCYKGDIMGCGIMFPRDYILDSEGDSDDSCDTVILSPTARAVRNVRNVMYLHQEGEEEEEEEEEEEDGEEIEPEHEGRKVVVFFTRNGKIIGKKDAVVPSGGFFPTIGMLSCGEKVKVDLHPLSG

Target	log2 fold change
SPTBN1 isoform 3 (UniProt Q01082)	inactive: 0.032
SQOR (UniProt Q9Y6N5)	inactive: 0.11
SRCIN1 (UniProt Q9C0H9)	inactive: 0.118
SPOUT1 (UniProt Q5T280)	inactive: 0.001
STAM (UniProt A6NMU3)	inactive: 0.069
STAB1 (UniProt Q9NY15)	inactive: 0.006
SREBF1 isoform 4 (UniProt P36956)	inactive: -0.159

compound: CS(=O)(=O)N1CCN(Cc2cc3nc(-c4cccc5[nH]ncc45)nc(N4CCOCC4)c3s2)CC1 [pictilisib]; test: as above
How it was run: as §1

Target	log2 fold change
STARD8 isoform 2 (UniProt Q92502)	inactive: -0.094
ST3GAL4 isoform 4 (UniProt Q11206)	inactive: -0.103
SPRED2 (UniProt Q7Z698)	inactive: -0.059
STAU1 isoform 3 (UniProt O95793)	inactive: 0.048
SS18L1 (UniProt O75177)	inactive: 0.147
SSBP4 (UniProt U3KPY3)	inactive: 0.026
SPTY2D1 (UniProt Q68D10)	inactive: 0.178
SPTAN1 isoform 3 (UniProt Q13813)	inactive: 0.004
SPRYD3 (UniProt Q8NCJ5)	inactive: -0.186
ST6GALNAC1 (UniProt Q9NSC7)	inactive: -0.059

Individual results from above:
Value for STARD8 isoform 2 (UniProt Q92502) under log2 fold change: inactive: -0.094
Value for SSBP4 (UniProt U3KPY3) under log2 fold change: inactive: 0.026

Reference: the supplement of paper PMC10849652
